The other results are listed elsewhere or left out.
compound: C#Cc1cccc(Nc2ncnc3cc(OCCOC)c(OCCOC)cc23)c1 [erlotinib]; experiment: log2 fold change, soluble protein after heating vs DMSO (PISA); higher = thermal stabilisation; K562 lysate, 10 uM; active = over 0.2 and 3.5 SD of the protein, either way, in both replicates (recomputed)
Outline: (§1)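 The values are log-two fold changes in thermal stability compared with solvent controls and come from duplicates. They were obtained by TMTpro 16plex LC-MS/MS, with channel sums equalised, on the supernatant after 21,000xg for 90 min. That supernatant came from crude K562 extract at 1 mg/mL protein treated with 10 μM compound for 30 min, heated for 3 min across 48°C-58°C, pooled and brought to 0.5% NP-40 at 4°C.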

By UniProt entry, the sequences of proteins in these tests, tags left out. Where a name states a change or a piece, a line headed by the entry shows the natural chain unless it says otherwise.
UniProt Q9NYL9: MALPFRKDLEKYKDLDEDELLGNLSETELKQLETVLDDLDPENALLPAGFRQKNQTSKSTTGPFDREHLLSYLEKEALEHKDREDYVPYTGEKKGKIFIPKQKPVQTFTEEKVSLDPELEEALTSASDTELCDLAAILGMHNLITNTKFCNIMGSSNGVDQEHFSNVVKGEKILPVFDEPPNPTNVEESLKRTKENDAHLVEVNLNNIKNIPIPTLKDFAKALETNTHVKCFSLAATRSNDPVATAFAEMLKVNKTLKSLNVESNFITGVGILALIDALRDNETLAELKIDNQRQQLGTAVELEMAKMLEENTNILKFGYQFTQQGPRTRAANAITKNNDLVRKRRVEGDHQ
UniProt P67936, whole entry, looked up: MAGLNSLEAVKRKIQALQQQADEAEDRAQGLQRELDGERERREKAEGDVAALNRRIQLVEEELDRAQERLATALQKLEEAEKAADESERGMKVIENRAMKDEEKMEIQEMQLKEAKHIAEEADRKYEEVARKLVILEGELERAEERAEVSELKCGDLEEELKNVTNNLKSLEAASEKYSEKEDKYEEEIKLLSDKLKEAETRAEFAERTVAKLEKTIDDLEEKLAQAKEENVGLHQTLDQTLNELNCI
UniProt P11387: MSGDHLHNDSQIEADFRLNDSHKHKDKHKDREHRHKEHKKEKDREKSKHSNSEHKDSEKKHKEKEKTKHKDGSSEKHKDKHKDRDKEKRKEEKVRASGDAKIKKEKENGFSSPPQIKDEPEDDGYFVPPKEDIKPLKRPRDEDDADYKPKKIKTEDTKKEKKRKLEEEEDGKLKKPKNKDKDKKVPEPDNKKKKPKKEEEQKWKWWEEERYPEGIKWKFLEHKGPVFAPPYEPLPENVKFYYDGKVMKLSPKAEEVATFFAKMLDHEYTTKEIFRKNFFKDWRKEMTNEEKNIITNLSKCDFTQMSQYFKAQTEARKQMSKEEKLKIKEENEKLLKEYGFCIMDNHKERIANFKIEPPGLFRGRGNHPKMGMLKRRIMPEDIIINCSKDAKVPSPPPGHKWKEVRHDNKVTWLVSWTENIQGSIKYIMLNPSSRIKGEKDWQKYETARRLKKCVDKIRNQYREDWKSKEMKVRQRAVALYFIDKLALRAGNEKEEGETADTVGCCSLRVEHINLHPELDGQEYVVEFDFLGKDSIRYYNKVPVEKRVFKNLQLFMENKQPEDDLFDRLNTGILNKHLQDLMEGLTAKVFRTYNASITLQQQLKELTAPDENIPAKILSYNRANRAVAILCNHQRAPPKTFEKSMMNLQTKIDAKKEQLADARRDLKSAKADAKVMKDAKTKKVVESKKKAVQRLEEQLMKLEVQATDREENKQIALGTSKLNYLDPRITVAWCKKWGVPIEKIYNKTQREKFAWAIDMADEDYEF
UniProt P28908: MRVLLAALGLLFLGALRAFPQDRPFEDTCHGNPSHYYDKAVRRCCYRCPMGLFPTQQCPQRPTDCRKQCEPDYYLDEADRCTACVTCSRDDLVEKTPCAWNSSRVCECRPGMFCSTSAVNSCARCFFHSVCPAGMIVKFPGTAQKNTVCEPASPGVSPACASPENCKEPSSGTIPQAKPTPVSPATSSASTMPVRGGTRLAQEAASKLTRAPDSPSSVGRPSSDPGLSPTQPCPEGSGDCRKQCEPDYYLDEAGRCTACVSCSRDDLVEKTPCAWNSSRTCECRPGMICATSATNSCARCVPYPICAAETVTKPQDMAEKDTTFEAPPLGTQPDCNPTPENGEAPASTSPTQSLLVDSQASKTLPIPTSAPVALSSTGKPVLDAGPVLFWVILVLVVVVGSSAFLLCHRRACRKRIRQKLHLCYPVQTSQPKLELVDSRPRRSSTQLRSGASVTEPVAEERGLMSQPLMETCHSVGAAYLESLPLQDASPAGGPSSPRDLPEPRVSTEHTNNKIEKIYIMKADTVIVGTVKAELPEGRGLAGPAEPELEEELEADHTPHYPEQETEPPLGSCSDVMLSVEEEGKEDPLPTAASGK
UniProt Q8N511: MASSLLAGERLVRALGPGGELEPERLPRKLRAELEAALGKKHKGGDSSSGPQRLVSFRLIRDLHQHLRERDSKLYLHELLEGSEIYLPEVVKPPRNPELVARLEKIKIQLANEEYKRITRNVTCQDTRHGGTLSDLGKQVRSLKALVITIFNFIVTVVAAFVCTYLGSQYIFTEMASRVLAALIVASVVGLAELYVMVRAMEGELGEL
UniProt Q9NQ34: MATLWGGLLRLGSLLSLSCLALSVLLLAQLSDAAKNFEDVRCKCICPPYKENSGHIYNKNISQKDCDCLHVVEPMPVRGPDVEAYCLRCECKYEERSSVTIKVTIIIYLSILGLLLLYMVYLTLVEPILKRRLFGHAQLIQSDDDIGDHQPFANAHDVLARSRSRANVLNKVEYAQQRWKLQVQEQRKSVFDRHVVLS
UniProt Q96JJ7: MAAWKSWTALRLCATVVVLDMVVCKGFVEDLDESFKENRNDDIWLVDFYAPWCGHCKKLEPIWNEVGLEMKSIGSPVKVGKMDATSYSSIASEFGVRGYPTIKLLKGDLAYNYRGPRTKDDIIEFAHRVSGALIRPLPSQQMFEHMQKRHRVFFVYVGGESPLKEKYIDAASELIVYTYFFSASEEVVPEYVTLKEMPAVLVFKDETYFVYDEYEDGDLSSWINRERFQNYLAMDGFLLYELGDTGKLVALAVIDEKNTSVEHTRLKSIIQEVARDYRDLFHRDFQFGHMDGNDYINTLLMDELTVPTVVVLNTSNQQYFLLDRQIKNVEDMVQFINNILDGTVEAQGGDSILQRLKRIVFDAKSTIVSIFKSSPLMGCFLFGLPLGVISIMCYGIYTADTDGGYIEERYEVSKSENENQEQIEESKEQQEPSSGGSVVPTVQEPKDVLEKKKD
UniProt P12270, whole entry, looked up: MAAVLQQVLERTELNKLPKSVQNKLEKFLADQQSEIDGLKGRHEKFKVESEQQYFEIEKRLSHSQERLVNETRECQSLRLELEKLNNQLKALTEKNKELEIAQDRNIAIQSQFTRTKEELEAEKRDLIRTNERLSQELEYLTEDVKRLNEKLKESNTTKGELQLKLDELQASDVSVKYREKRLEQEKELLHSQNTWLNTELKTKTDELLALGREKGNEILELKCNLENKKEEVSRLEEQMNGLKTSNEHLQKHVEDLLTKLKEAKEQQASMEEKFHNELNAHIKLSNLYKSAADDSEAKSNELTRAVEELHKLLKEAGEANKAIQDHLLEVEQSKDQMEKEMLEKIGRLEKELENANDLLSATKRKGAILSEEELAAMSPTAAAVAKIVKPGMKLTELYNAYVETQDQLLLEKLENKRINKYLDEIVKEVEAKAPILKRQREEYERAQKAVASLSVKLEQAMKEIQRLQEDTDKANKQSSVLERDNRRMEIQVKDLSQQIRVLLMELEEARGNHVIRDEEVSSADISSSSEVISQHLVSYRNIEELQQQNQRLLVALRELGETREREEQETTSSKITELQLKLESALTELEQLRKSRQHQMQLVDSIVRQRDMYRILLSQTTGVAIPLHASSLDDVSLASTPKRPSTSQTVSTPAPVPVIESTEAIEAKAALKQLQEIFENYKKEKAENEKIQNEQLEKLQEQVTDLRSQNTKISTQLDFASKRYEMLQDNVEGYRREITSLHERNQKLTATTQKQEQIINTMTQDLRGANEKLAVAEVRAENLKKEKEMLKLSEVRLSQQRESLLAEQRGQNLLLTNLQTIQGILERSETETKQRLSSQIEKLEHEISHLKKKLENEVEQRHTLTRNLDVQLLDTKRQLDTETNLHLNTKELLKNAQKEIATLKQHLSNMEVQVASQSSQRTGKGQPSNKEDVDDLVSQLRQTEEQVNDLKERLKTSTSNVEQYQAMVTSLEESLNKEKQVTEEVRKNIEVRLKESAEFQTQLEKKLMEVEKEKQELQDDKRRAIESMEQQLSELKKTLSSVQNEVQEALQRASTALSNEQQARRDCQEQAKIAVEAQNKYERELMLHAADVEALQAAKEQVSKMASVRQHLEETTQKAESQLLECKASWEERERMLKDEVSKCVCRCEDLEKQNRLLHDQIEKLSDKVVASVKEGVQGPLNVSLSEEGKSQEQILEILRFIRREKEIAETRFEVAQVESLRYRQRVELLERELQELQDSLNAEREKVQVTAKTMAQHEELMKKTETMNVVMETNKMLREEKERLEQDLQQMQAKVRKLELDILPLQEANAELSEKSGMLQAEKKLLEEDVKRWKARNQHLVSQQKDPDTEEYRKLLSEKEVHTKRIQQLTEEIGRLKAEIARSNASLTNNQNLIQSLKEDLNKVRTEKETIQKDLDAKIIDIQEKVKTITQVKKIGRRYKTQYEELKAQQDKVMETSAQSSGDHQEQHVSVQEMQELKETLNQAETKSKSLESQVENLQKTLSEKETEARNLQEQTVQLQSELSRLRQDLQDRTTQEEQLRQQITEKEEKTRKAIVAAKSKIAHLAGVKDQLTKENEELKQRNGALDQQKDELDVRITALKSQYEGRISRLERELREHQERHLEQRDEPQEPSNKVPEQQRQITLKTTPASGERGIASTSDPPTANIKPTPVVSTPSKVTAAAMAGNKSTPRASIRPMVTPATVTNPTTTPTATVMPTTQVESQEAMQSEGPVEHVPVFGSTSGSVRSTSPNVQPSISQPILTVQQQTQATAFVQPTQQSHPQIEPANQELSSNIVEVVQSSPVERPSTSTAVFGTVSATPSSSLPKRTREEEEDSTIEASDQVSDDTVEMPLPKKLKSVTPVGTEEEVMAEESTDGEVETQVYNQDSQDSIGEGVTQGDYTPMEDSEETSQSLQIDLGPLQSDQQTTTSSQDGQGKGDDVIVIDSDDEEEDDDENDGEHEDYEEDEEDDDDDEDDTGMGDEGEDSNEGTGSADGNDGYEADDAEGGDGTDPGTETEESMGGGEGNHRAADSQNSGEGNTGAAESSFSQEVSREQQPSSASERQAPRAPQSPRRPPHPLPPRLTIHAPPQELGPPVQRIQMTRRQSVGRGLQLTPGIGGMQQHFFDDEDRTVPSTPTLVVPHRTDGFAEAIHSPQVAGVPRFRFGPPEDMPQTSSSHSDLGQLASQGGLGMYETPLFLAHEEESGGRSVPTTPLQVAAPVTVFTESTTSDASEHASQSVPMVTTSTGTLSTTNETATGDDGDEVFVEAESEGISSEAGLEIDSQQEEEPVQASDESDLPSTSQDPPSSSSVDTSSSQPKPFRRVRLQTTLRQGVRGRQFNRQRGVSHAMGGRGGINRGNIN
UniProt Q8IY95: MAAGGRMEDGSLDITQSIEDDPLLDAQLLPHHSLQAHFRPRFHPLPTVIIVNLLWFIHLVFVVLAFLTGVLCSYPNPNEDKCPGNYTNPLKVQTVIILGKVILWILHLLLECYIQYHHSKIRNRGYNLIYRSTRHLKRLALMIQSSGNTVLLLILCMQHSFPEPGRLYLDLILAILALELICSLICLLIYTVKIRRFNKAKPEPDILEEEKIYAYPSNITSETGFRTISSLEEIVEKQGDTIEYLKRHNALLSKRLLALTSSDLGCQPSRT
UniProt Q9ULW0, whole entry, looked up: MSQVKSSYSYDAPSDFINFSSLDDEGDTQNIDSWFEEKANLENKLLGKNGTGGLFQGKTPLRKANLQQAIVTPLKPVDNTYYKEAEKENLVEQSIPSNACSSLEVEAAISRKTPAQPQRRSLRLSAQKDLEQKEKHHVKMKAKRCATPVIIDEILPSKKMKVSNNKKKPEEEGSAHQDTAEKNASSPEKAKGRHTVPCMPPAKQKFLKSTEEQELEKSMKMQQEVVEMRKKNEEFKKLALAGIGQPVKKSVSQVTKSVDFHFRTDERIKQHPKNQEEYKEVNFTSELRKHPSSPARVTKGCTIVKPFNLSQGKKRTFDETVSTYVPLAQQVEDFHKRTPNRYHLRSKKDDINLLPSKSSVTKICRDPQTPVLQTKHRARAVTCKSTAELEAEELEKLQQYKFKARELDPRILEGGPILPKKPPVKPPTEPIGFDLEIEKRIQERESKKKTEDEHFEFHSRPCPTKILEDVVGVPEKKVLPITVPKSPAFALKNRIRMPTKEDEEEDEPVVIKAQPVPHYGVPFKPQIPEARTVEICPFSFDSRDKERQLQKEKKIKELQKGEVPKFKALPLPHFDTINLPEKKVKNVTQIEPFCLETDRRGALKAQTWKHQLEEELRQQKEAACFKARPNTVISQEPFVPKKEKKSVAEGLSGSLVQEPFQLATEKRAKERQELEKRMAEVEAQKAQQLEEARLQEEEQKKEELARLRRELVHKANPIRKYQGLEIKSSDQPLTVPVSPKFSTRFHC
UniProt Q53FA7: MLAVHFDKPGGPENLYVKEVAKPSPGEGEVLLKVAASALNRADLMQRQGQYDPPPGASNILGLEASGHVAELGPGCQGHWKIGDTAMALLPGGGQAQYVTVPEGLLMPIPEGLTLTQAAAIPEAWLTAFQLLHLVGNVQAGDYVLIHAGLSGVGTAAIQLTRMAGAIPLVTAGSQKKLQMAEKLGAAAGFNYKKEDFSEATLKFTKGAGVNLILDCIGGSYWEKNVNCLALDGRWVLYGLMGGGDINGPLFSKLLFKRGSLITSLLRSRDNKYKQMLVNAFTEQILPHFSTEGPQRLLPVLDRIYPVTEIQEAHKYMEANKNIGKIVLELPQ

log2 fold change, inactive:
TPI1 (UniProt P60174) -0.005
TMOD3 (UniProt Q9NYL9) -0.007
TOR1AIP1 isoform 3 (UniProt Q5JTV8) -0.007
TNPO1 (UniProt Q92973) 0.014
TPP2 (UniProt P29144) -0.001
TOR1AIP2 (UniProt Q8NFQ8) -0.009
TP53BP1 isoform 2 (UniProt Q12888) -0.004
TP53BP2 isoform 3 (UniProt Q13625) 0.014
TMEM245 (UniProt Q9H330) 0.008
TPM1 isoform 4 (UniProt P09493) -0.126
TPM4 (UniProt P67936) 0.028
TMTC3 (UniProt Q6ZXV5) -0.018
TOP2B isoform 2 (UniProt Q02880) 0.006
TOP1 (UniProt P11387) -0.032
TOX4 (UniProt O94842) -0.016
TNFRSF8 (UniProt P28908) -0.006
TMEM63A (UniProt O94886) -0.036
TPP2 (UniProt Q5VZU9) 0.043
TMEM199 (UniProt Q8N511) 0.002
TPD52L2 isoform 7 (UniProt O43399) -0.044
TOP2A isoform 4 (UniProt P11388) -0.004
TOP3A (UniProt Q13472) -0.026
TMEM219 (UniProt Q86XT9) 0.062
TMEM9B (UniProt Q9NQ34) -0.119
TMX3 (UniProt Q96JJ7) 0
TPR (UniProt P12270) -0.027
TMEM192 (UniProt Q8IY95) -0.008
TPX2 (UniProt Q9ULW0) -0.014
TNFRSF1B (UniProt P20333) 0.028
TPP1 (UniProt O14773) 0.02
TP53I3 (UniProt Q53FA7) -0.069
TMEM43 (UniProt Q9BTV4) 0.019
TNFAIP8 isoform 4 (UniProt O95379) -0.006

compound: C/C(=N\NC(=O)C1=CC(=CC=C1)S(=O)(=O)N2CCOCC2)/C3=C(C=CC(=C3)Cl)O; experiment: as above
Outline: as §1

log2 fold change, inactive:
TPI1 (UniProt P60174) 0.038
TMOD3 (UniProt Q9NYL9) -0.027
TOR1AIP1 isoform 3 (UniProt Q5JTV8) -0.092
TNPO1 (UniProt Q92973) -0.038
TPP2 (UniProt P29144) -0.098
TOR1AIP2 (UniProt Q8NFQ8) 0.029
TP53BP1 isoform 2 (UniProt Q12888) 0
TP53BP2 isoform 3 (UniProt Q13625) 0.021
TMEM245 (UniProt Q9H330) -0.032
TPM1 isoform 4 (UniProt P09493) -0.004
TPM4 (UniProt P67936) 0.048
TMTC3 (UniProt Q6ZXV5) 0.062
TOP2B isoform 2 (UniProt Q02880) -0.004
TOP1 (UniProt P11387) -0.019
TOX4 (UniProt O94842) -0.025
TNFRSF8 (UniProt P28908) -0.017
TMEM63A (UniProt O94886) -0.044
TPP2 (UniProt Q5VZU9) -0.036
TMEM199 (UniProt Q8N511) -0.03
TPD52L2 isoform 7 (UniProt O43399) -0.028
TOP2A isoform 4 (UniProt P11388) -0.049
TOP3A (UniProt Q13472) 0.054
TMEM219 (UniProt Q86XT9) 0.024
TMEM9B (UniProt Q9NQ34) -0.031
TMX3 (UniProt Q96JJ7) -0.02
TPR (UniProt P12270) 0.007
TMEM192 (UniProt Q8IY95) 0.004
TPX2 (UniProt Q9ULW0) -0.008
TNFRSF1B (UniProt P20333) 0.001
TPP1 (UniProt O14773) -0.032
TP53I3 (UniProt Q53FA7) 0.009
TMEM43 (UniProt Q9BTV4) -0.041
TNFAIP8 isoform 4 (UniProt O95379) 0.072

compound: C1=CC(=CC=C1C2=NC3=C(N2)C=C(C=C3)C(=O)N)OC4=CC=C(C=C4)Cl; experiment: as above
Outline: as §1

log2 fold change, inactive:
TPI1 (UniProt P60174) 0.022
TMOD3 (UniProt Q9NYL9) 0.04
TOR1AIP1 isoform 3 (UniProt Q5JTV8) -0.008
TNPO1 (UniProt Q92973) 0.006
TPP2 (UniProt P29144) 0.01
TOR1AIP2 (UniProt Q8NFQ8) -0.022
TP53BP1 isoform 2 (UniProt Q12888) 0.015
TP53BP2 isoform 3 (UniProt Q13625) 0.019
TMEM245 (UniProt Q9H330) 0.031
TPM1 isoform 4 (UniProt P09493) 0.005
TPM4 (UniProt P67936) 0.005
TMTC3 (UniProt Q6ZXV5) -0.123
TOP2B isoform 2 (UniProt Q02880) -0.005
TOP1 (UniProt P11387) -0.048
TOX4 (UniProt O94842) 0.049
TNFRSF8 (UniProt P28908) 0.047
TMEM63A (UniProt O94886) 0.02
TPP2 (UniProt Q5VZU9) 0.086
TMEM199 (UniProt Q8N511) -0.034
TPD52L2 isoform 7 (UniProt O43399) 0.085
TOP2A isoform 4 (UniProt P11388) 0.004
TOP3A (UniProt Q13472) -0.014
TMEM219 (UniProt Q86XT9) 0.106
TMEM9B (UniProt Q9NQ34) -0.159
TMX3 (UniProt Q96JJ7) 0.003
TPR (UniProt P12270) 0.025
TMEM192 (UniProt Q8IY95) 0.039
TPX2 (UniProt Q9ULW0) 0.032
TNFRSF1B (UniProt P20333) 0.037
TPP1 (UniProt O14773) -0.009
TP53I3 (UniProt Q53FA7) -0.016
TMEM43 (UniProt Q9BTV4) -0.002
TNFAIP8 isoform 4 (UniProt O95379) -0.046
